Reference: PubChem BioAssay AID504444 (National Center for Advancing Translational Sciences (NCATS), 2011)
Values joined by “and” are separate entries in the source; they are usually repeats but may differ in a detail not shown here. Equal entries are not always repeated. Out of some 360,000 compounds screened, about 7,500 (2.1%) were called active. Inconclusive means that the source gave no clear call. Such entries were picked first, then a sample of the others. Calls follow the shape of the dose curve; as a rule, active = well fitted inhibition curve with a large enough effect; inconclusive = small, poorly fitted or top-dose-only effect, or effect the other way; inactive = flat fitted curve, though single readings scatter. A potency beside an inconclusive call is a rough fit, not a confirmed value.

Experiment: Nrf2 qHTS screen for inhibitors; also: nearly all actives have a fitted effect of over 60% in size
Conditions: A549 ARE-Fluc reporter, luciferase luminescence, 18-24 h; activity change, negative = inhibition: at 46 µM (top of the series)
Outline: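 In this cell-based qHTS, ARE-driven firefly luciferase in A549 cells reports Nrf2 activity; the luminescent signal after BugLite lysis is the measured value, with a prior CellTiter-Fluor read for cell health.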
% is scaled to controls: 0 for no effect and ±100 for the full control effect; potency is read from the fitted curve at half-maximal effect.

SMILES | activity change, negative = inhibition | Potency
COc1ccc(C2=NN(C(=O)c3ccccc3)C(c3ccccc3)C2)c(O)c1 (stereo not given) | inactive: 26% | 
COc1ccc(CCNS(=O)(=O)c2ccc3c(c2)NC(=O)CCS3)cc1OC |  | inconclusive: 29.1 µM [falling, single point]
CC(C)Nc1nc(C#N)nc(NC(C)C)n1 |  | inconclusive: 0.92 µM [falling, full curve, poor fit]
COc1ccc(CCN2C(=O)c3[nH]nc(-c4ccccc4O)c3C2c2ccc(OC)cc2)cc1 (stereo not given) | inactive: -22.9% | 
O=C(COc1c(F)c(F)c(C(F)(F)F)c(F)c1F)Nc1ccc(N2CCOCC2)c(Cl)c1 |  | inconclusive: 29.1 µM [falling, single point]
c1ccc(CCNc2ncnc3ccccc23)cc1 |  | inconclusive: 0.731 µM [falling, full curve]
CCCCn1c(SCC(=O)Nc2cc(NC(=O)c3ccco3)ccc2C)nc2ccccc2c1=O |  | inconclusive: 14.6 µM [falling, single point]
CCOC(=O)c1[nH]c(C)c(/C=N/O)c1C |  | inconclusive: 32.6 µM [falling, single point]
Cn1nnnc1Sc1ncnc2scc(-c3cccc(F)c3)c12 |  | inconclusive: 29.1 µM [falling, single point] and inconclusive: 25.9 µM [falling, single point]
Cc1ccc(N=Cc2sc(O)c3ccccc23)c(C)c1 |  | inconclusive: 3.26 µM [activator, full curve]
COc1ccccc1CNC(=O)Cc1csc(NC(=O)Nc2ccccc2OC)n1 | inactive: -22.9% | 
Cc1c(C)n(C(=O)CN2CCN(c3ccccc3)CC2)c2ccccc12 |  | inconclusive: 0.731 µM [falling, full curve, poor fit]
COc1ccc(C)cc1NC(=O)C(NCC1CCCO1)c1ccccc1 (stereo not given) | inactive: -3.93% | 
CCCCn1c(-c2ccc(Br)cc2F)nc2c1c(=O)[nH]c(=O)n2CC(C)C |  | active: 20.6 µM
CC(C)CNc1nnnc2c1sc1nc(N3CCOCC3)c3c(c12)CCCC3 |  | inconclusive: 3.26 µM [falling, full curve]
Cc1nn(CC(=O)c2ccccc2Cl)c(C)c1[N+](=O)[O-] |  | inconclusive: 23.1 µM [activator, partial curve]
C(=N\Nc1ccc2nncn2n1)/c1ccco1 | inactive: 2.94% | 
Cc1c(Cl)cnc(NC(=O)CSc2nnc3ccccn23)c1Cl |  | inconclusive: 7.31 µM [activator, partial curve]
COc1ccc(-c2nc(SCC(=O)Nc3ccc4c(c3)OCCO4)c(-c3ccc(C)cc3)[nH]2)cc1OC | inactive: -19.4% | 
CCOc1ccc2nc(N/C(N)=N/C(=S)Nc3ccc(C)c(C)c3)nc(C)c2c1 | inactive: 23.1% | 
COCc1cc(C)nc2sc(C(=O)Nc3cccc(OC)c3)c(N)c12 | inactive: 20.7% | 
COC(=O)C1=C(C)NC(=O)/C1=C\c1cc(C)n(-c2cc(C)cc(C)c2)c1C |  | active: 23.1 µM

SMILES | activity change, negative = inhibition | Potency
Cc1ccc(F)c(NC(=O)/C(C#N)=C(\O)c2ccc(C(C)(C)C)cc2)c1 | inactive: 1.46% | 
Cc1ccccc1Nc1c(-c2ccc(N3CCOCC3)cc2)nc2ccccn12 |  | inconclusive: 2.06 µM [activator, partial curve]
O=C(NNS(=O)(=O)c1ccc([N+](=O)[O-])cc1)c1ccncc1 |  | inconclusive: 6.51 µM [falling, partial curve, poor fit]
CC(N=C(NC#N)Nc1ccncc1)C(C)(C)C (stereo not given) |  | inconclusive: 1.84 µM [falling, full curve, poor fit]
C=CCn1c(COc2ccccc2)nnc1SCC(=O)N/N=C/c1ccc(C)cc1 |  | inconclusive: 11.6 µM [activator, partial curve, poor fit]
CC(C)(C)OC(=O)N1CCC(c2nnc(SCc3cccc(Cl)c3)o2)CC1 |  | inconclusive: 16.4 µM [falling, partial curve, poor fit]
CCOC(=O)c1cc2c(=O)[nH]c(C(Cl)(Cl)Cl)nc2o1 |  | inconclusive: 16.4 µM [falling, partial curve, poor fit]
COc1ccc(NC(=O)c2ccc(OC)c(S(=O)(=O)N3CCCCC3C)c2)cn1 (stereo not given) |  | inconclusive: 29.1 µM [falling, single point]
Cc1ccccc1NS(=O)(=O)c1cc(C(=O)N2CCCC2)ccc1C | inactive: -6.85% | 
N=c1n(Cc2ccccc2)c2ccccc2n1CC(O)COc1ccc(Cl)cc1Cl (stereo not given) |  | inconclusive: 29.1 µM [falling, single point]
Clc1ccc(-c2nc(-c3ccccn3)no2)cc1Cl |  | inconclusive: 0.58 µM [activator, full curve]
COc1ccc(NC(=O)CN(c2cc(C)cc(C)c2)S(=O)(=O)c2c(C)noc2C)cc1Cl |  | inconclusive: 25.9 µM [falling, single point]
CC(=O)c1ccc(NC(=O)c2cc3sccc3n2Cc2ccc(F)cc2)cc1 |  | inconclusive: 20.6 µM [falling, single point]
Cc1cc(C)cc(NC(=O)c2cc(CN3CCCC3)on2)c1 |  | inconclusive: 5.17 µM [activator, full curve, poor fit]
COc1cccc(NC(=O)C(=S)NC2CCCCC2)c1 |  | inconclusive: 4.61 µM [activator, partial curve]
COc1ccc(-c2cc(C(F)(F)F)n3ncc(C(=O)NCC4CCCO4)c3n2)cc1 (stereo not given) | inactive: -2.15% | 
Cc1c(C(=O)NC2=NCCS2)oc2ccccc12 |  | inconclusive: 1.84 µM [activator, full curve]
N#Cc1ccc(N[C@@H]2CCN3C(=O)c4ccccc4[C@@H]3C[C@H]2O)cc1 |  | inconclusive: 4.11 µM [falling, partial curve]
CC1CCc2c(sc3ncn(Cc4ccc(C(=O)O)cc4)c(=O)c23)C1 (stereo not given) |  | inconclusive: 10.3 µM [activator, partial curve, poor fit]
O=C1CC(C(=O)Nc2ccccc2)S/C(=N\NC(=O)c2ccccc2Cl)N1 (stereo not given) | inactive: 3.91% | 
CCOc1cc(/C=N/NC(=O)COc2ccc(Cl)cc2)ccc1OS(=O)(=O)c1ccccc1 |  | inconclusive: 23.1 µM [falling, single point]
Cc1ccc(Cc2nc(-c3cccnc3)no2)cc1 |  | inconclusive: 5.17 µM [activator, partial curve, poor fit]

One compound at a time, from the list above:
`CCOC(=O)c1[nH]c(C)c(/C=N/O)c1C` in the list: Potency: inconclusive: 32.6 µM [falling, single point]
`N#Cc1ccc(N[C@@H]2CCN3C(=O)c4ccccc4[C@@H]3C[C@H]2O)cc1` in the list: Potency: inconclusive: 4.11 µM [falling, partial curve]

(continued)

SMILES | activity change, negative = inhibition | Potency
CC(=O)Cc1nsc(NC(=O)c2cn(-c3ccccc3)nc2-c2ccc(Br)cc2)n1 |  | inconclusive: 2.91 µM [falling, full curve, poor fit]
CCCN1CCC(=O)N(C(CSc2ccc(Br)cc2)CC(C)C)CC1 (stereo not given) |  | inconclusive: 7.31 µM [activator, partial curve]
CCCCC1CCC(C(=O)N(C)CC(=O)Nc2cccc(F)c2)CC1 (stereo not given) |  | inconclusive: 29.1 µM [falling, single point]
COc1ccc(-c2nn(-c3ccccc3C)cc2CNC(C)c2cn(C)nc2C)cc1F (stereo not given) |  | inconclusive: 6.51 µM [activator, single point]
CCOc1cc(Br)c(CN2C(=O)NC3(CCCCCC3)C2=O)cc1OCC |  | active: 20.6 µM
CC(=O)Nc1ccc(/C(N=Nc2ccccc2)=N/N=C(N)N)cc1 |  | inconclusive: 7.31 µM [activator, partial curve]
COc1ccc(C2CC(c3cccs3)=NN2C(=O)c2ccco2)cc1OC (stereo not given) | inactive: 12.4% | 
COc1cccc(NC(=O)CN(C)C(=O)/C=C/c2cn(-c3ccccc3)nc2-c2ccc(C)cc2)c1 |  | inconclusive: 29.1 µM [falling, single point]
CN(C)C(=O)CSc1nnc(-c2cccs2)n1-c1ccccc1 | inactive: 0.0852% | 
COCCNC(C(=O)Nc1ccc([N+](=O)[O-])cc1Br)c1ccccc1 (stereo not given) |  | inconclusive: 29.1 µM [falling, single point]
c1ccc2c(c1)nc(-c1ccncc1)n1nnnc21 |  | inconclusive: 23.1 µM [falling, partial curve]
CN(C(=O)c1ccc(NC(=O)Cc2cccc(NC(=O)C3CCN(C(=O)C4CCCCC4)CC3)c2)cc1)C1CCCC1 |  | inconclusive: 3.26 µM [falling, partial curve, poor fit]
COc1ccc(C(CNC(=O)c2ccc(N3CCCC3=O)cc2)N(C)C)cc1 (stereo not given) |  | inconclusive: 20.6 µM [activator, single point]
Cc1cccc(N2CCN(C(=O)CNC(=O)C3CCCCC3)CC2)c1C |  | inconclusive: 16.4 µM [falling, single point]
O=C(Nc1ccccc1N1CCOCC1)c1ccc2ccccc2n1 |  | inconclusive: 25.9 µM [activator, partial curve]
CC(=O)OCC(=O)[C@@]1(OC(C)=O)[C@@H](C)C[C@H]2[C@@H]3C[C@H](F)C4=CC(=O)C=C[C@]4(C)[C@@]3(F)[C@@H](O)C[C@@]21C |  | active: 0.0092 µM
CC1CC(C)(C)NC(=S)N1CCCC(=O)Nc1ccc(F)cc1 (stereo not given) |  | inconclusive: 14.6 µM [falling, partial curve]
CC1CN(c2nc3c(c(=O)n(Cc4ccc(Cl)cc4)c(=O)n3C)n2C)CC(C)O1 (stereo not given) |  | inconclusive: 32.6 µM [falling, single point]
COc1ccc(NC(=O)CCCN2C(=O)C(c3ccccc3)Oc3cccnc32)c(OC)c1 (stereo not given) |  | inconclusive: 23.1 µM [falling, partial curve, poor fit]
C[C@H](NC(=O)c1nc[nH]c1C(=O)NCc1ccc(CNC(=O)OC(C)(C)C)cc1)c1ccccc1 |  | inconclusive: 29.1 µM [falling, single point]
CCc1ccc(N2CC(C(=O)Nc3cccc(S(=O)(=O)N4CCCC4)c3)CC2=O)cc1 (stereo not given) |  | inconclusive: 29.1 µM [falling, single point]

Another view of some results above:
COCCNC(C(=O)Nc1ccc([N+](=O)[O-])cc1Br)c1ccccc1 (stereo not given)
  Potency: inconclusive: 29.1 µM [falling, single point]
c1ccc2c(c1)nc(-c1ccncc1)n1nnnc21
  Potency: inconclusive: 23.1 µM [falling, partial curve]
Cc1cccc(N2CCN(C(=O)CNC(=O)C3CCCCC3)CC2)c1C
  Potency: inconclusive: 16.4 µM [falling, single point]
COc1ccc(NC(=O)CCCN2C(=O)C(c3ccccc3)Oc3cccnc32)c(OC)c1 (stereo not given)
  Potency: inconclusive: 23.1 µM [falling, partial curve, poor fit]
